# According to US6656914B2, “Method for treating tumors caused by APC gene mutation with anthocyanins and cyanidin” (Board of Trustees of Michigan State University, priority 2000, dated 2003):
# Like-named read-outs stand apart in the source and are kept apart here. At least one structure is not confirmed: it was looked up by name or label, or the drawing left a doubt. Some of these results come from one statement about several compounds together.
# Key:
# [1] = tested on: intestinal adenomas in Min mice (Apc^min/Apc^+); assay: Intestinal tumorigenesis in Min mice fed treatment diets for 10 weeks (adenoma number and size); assay type: in vivo
# Source text: Forty-eight Min mice were randomly assigned to five treatment groups at 4-5 weeks of age and fed treatment diets for 10 weeks. The treatments were:
# 1) Modified AIN-93G control diet, 2) The control diet +800 ppm anthocyanins in drinking water, 3) The control diet+200 ppm cyanidin in drinking water, 4) The control diet+200 ppm sulindac in drinking water, 5) Modified control diet containing 20% freeze dried pitted tart cherries. Only mean diameter, not the number of adenomas in the small intestine was reduced by sulindac, whereas diameter was increased by cherry diet (p<0.05).
# All research was conducted with approval of the Michigan State University, East Lansing, Mich., All-University Committee on animal use and care. Mice were housed in MSU Laboratory, Animal Resources maintained facilities. A colony of Min mice was maintained by crossing male Min mice (Apc^min/Apc^+) with normal adult C57BL/6J female mice. Mice were housed in a temperature and humidity-controlled room (20-22° C., 70%) with a 12-h light/dark cycle. At three weeks of age, mice were bled from the dorsal pedal vein (30 μL) for genotyping analysis to identify Apc^min/Apc^+ using polymerase chain reaction (PCR) analysis and subsequent gel electrophoresis analysis. Forty-eight Min mice identified were randomly assigned to five treatment groups (7 to 11 per treatment) at 4 or 5 weeks of age and fed treatment diets for 10 weeks. The treatments were:
# 1) Modified AIN-93G control diet and 50 ppm ascorbic acid in drinking water (n=11)
# 2) The control diet+50 ppm ascorbic acid and 800 ppm anthocyanins in drinking water (n=9)
# 3) The control diet+50 ppm ascorbic acid and 200 ppm cyanidin in drinking water (n=7)
# 4) The control diet+50 ppm ascorbic acid and 200 ppm sulindac in drinking water (n=10)
# 5) 20% freeze-dried cherries+50 ppm ascorbic acid in drinking water (n=11).
# Ingredient composition of diets is in Table 1. All diets contained 22% protein, 15% fat (soybean oil) and 5% cellulose contents. Distilled water was used for drinking water. Ascorbic acid was added to provide low pH for keeping anthocyanins and cyanidin in solution since they are stable only under pH 7. The concentration of sulindac (200 ppm) was based on the effective range found from most studies that have shown sulindac to reduce intestinal neoplasia. Cyanidin concentration (200 ppm) was matched to that of sulindac. Anthocyanins was tested at the level four times the cyanidin concentration because anthocyanins are the glycosylated cyanidin and the level (800 ppm) has equivalent amount of flavylium cation. Red tart pitted cherries (Peerson Farms, Inc., Shelby, Mich.) were frozen, freeze-dried, ground using plate grinder, and then screened to pass a 1 mm screen before they were incorporated into the diet at the expense of sucrose, cornstarch and dyetrose. One hundred grams of the experimental diet included 23 g of ground cherries to make 20% of cherries in the diet because dry matter of cherries was 75%, whereas that of AIN-93G diet was 91%.
# Body weight was measured once a week until mice were sacrificed at the end of treatment period. Upon sacrifice by carbon dioxide asphyxiation, the liver was removed and frozen immediately for confirmatory PCR analysis. The entire small intestine, cecum, and colon were removed from each mouse to determine the number and size of adenomas. The tissues were separated into the following sections: proximal one-third of small intestine, middle one-third of small intestine, distal one-third of small intestine, cecum, and colon. All intestinal sections were opened longitudinally, rinsed thoroughly with water, fixed overnight in 10% neutral-buffered formalin, and then stained with 0.2% methylene blue. Tumor number and size (diameter for flat tumors or volume in the case of three-dimensional tumors) were determined in each intestinal segment on 1 mm grid transparency by direct counting with the aid of a dissecting microscope. […]
# [2] = tested on: cyclooxygenase enzymes; conditions: as described in U.S. application Ser. No. 09/337,313; cited from earlier work
# [3] = drinking water acidified with ascorbic acid; cited from earlier work
smiles,measurement,setting,value
Oc1cc(O)c2cc(O)c(-c3ccc(O)c(O)c3)[o+]c2c1 [Cyanidin],Intestinal site of inhibited tumorigenesis (conclusion in words),[1],inhibit cecal tumorigenesis
same,Number of cecal adenomas compared to controls (in words),[1],significantly fewer cecal adenomas than the controls
same,Size (volume) of adenomas in the cecum (in words),[1],reduced
same,Number and size of the small intestinal adenomas (in words),[1]; in drinking water,Neither anthocyanins nor cyanidin in drinking water affected
same,Number of cecal adenomas compared to controls (in words),[1]; listed as cyanidins,less adenomas in the cecum
same,Average number of solid tumors in the cecum and colon (in words),[1]; no significant differences detected,numerically reduced the average number
same,Inhibition of cyclooxygenase enzymes (in words),[2],"intermediate in efficacy between aspirin and the non-steroidal anti-inflammatory drug, flurbiprofen"
same,pH under which stable in solution,[3],< 7
